Assay results: article doi:10.1101/2021.03.16.435663
Results are given in words; binding and its absence hold for the method and conditions named. Binding calls can cover weak binding; strength is not graded here.

Chains of the proteins cited; added tags and fusions are not shown. Lines headed by an entry give the natural chain unless they say otherwise; changes in a name come on top.
UniProt Q3E7A7: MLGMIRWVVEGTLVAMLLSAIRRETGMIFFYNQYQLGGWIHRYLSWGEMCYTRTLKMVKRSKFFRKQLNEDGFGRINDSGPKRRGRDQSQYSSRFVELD

Target: YKL018C-A/MCO12 (S. cerevisiae) (UniProt Q3E7A7)
Test: two-hybrid

binding: binds
B1: Pex35 (protein, UniProt P53293 1-376)
chain: MKHNRPNGTGKAVSGFKQIIRRLLLLLNKKRRKQLVIILKRITQVYGINLVFYVKKWKLKKLQGENIQINDIMPWLRESTILVLLNILYPTLMKFPFLKNHYIHWSSIVGISLMLTKGEVPSWIIAHFLVEAIASKLKIAKLTQWLKKKNFSQGTLIKFQQILVCLAIIVLFAKLDRSSLPFRVLFDHRPFLIDFFTINAIFTVLAVYHRTLKFFFTSGTKSNKNVGGHEVRNFSQYLGVKNHNDWPISSSNLKHVMDRLNEIHEVTIDDNYANINEKIINSYFTKGFFPSLKWTILRQCIEYLFVTKRRRLMGNKLRCIVMLLTFTFVDPTSKMKISPFFAKFFAKSLVNVYLKKYWHCNFGKYILFFLFQLSIM
